Laboratory results taken from PubChem BioAssay AID493014 (National Center for Advancing Translational Sciences (NCATS), 2011).
Some of the results follow. Further columns of the screen follow, without active or inactive calls. The list favours compounds with an active or inconclusive main result. The note in brackets gives the kind of curve behind each potency; many fits are weak.

Assay: qHTS Assay to Find Inhibitors of Chronic Active B-Cell Receptor Signaling
Settings: ABC-DLBCL IkBa-CBG/CBR reporter, luminescence ratio (green luciferase fused to IkBa over red control in TMD8 lymphoma cells), 4 h
Outline: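 TMD8 ABC-DLBCL cells carrying doxycycline-inducible green luciferase fused to IkappaBalpha plus unfused red luciferase were exposed to compounds (up to 46 uM) for 4 hrs at 37C. Activity came from the overlap-corrected green/red luminescence ratio.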

[1] = measured here: CBR red luminescence, cell number
[2] = measured here: IkBa-CBG green luminescence

Row | Structure (SMILES) | AC50 [1] | AC50 [2]
1 | O=C(c1cc(-c2ccc(Cl)c(Cl)c2)on1)N1CCCCCC1 | 0.316 µM [rising, full curve, poor fit] | –
2 | CCCNC(=S)Nc1ccc(CC(=O)OC)cc1 | 4.11 µM [rising, partial curve, poor fit] | –
3 | COC(=O)Nc1ccc2c(c1)N(C(=O)CCCl)c1ccccc1S2 | 28.2 µM [falling, single point] | –
4 | CCN(CC)CCN(C(=O)c1ccc(N2C(=O)CCC2=O)cc1)c1nc2cc3c(cc2s1)OCCO3 | 14.1 µM [falling, single point] | –
5 | O=C(NC(NC(=S)Nc1ccccc1O)C(Cl)(Cl)Cl)c1ccco1 (stereo not drawn) | 29.1 µM [falling, single point] | –
6 | COc1ccc(N2C(=O)CC(c3ccc([N+](=O)[O-])cc3)C2=O)cc1 (stereo not drawn) | 22.4 µM [rising, single point] | –
7 | O=C(Nc1ccc(Cl)cc1)Nc1ccccc1CC[N+](=O)[O-] | 7.08 µM [falling, partial curve, poor fit] | –
8 | CCCCc1cc(=O)oc2cc(O)cc(O)c12 | 35.5 µM [rising, single point] | –
9 | Cc1ccc2nc(N3C(=O)C(O)=C(C(=O)c4ccco4)C3c3ccc(O)cc3)sc2c1 (stereo not drawn) | 0.355 µM [falling, full curve] | –
10 | COc1ccc(OC)c(NC(=O)c2cc3n(n2)C(C(F)(F)F)CC(c2ccc4c(c2)OCO4)N3)c1 (stereo not drawn) | 20 µM [rising, partial curve, poor fit] | –
11 | Cc1nnc(N(Cc2ccco2)C(=O)c2cccc(C#N)c2)s1 | 0.116 µM [falling, full curve, poor fit] | –
12 | Cc1ccccc1-c1nc(CS(=O)(=O)CC(=O)NCc2ccco2)c(C)o1 | 11.2 µM [falling, partial curve, poor fit] | –
13 | Cc1cc(C)nc(Sc2ccc([N+](=O)[O-])cc2[N+](=O)[O-])n1 | 23.1 µM [falling, single point] | –
14 | Cc1ccc(Oc2ccc(S(=O)(=O)N3CCOCC3)cc2C(N)=O)c(-n2nc3ccccc3n2)c1 | 31.6 µM [rising, single point] | 17.8 µM [falling, single point]
15 | CCC(C)c1ccc(NC(=O)Nc2cnccn2)cc1 (stereo not drawn) | 5.62 µM [rising, full curve] | –
16 | COc1ccc(CCNc2nc3ccccc3n3cnnc23)cc1OC | 25.1 µM [falling, single point] | –
17 | C[C@H](NC(=O)c1ccc2ccccc2c1)C(=O)N1CCC2(CC1)NCCc1[nH]cnc12 | 5.62 µM [rising, single point] | –
18 | COc1ccc(NCN2C(=O)CCC2=O)cc1 | 0.164 µM [rising, full curve, poor fit] | –
19 | O=C(Nc1ccccc1)ON=C1CCCC1 | 29.1 µM [falling, single point] | –
20 | COc1cc(C(=O)N/N=C/c2cc([N+](=O)[O-])cs2)cc(OC)c1OC | 18.4 µM [rising, partial curve] | 20.6 µM [falling, partial curve]

Row | Structure (SMILES) | AC50 [1] | AC50 [2]
21 | O=C1NN(c2ccccc2)C(=O)/C1=C\c1ccccc1 | 12.6 µM [falling, single point] | –
22 | CCOC(=O)C(C)Oc1cccc2c(=O)n(CC(=O)NCc3ccco3)ccc12 (stereo not drawn) | 13 µM [rising, partial curve] | 8.2 µM [falling, partial curve]
23 | CSCc1ccc(C(=O)NCc2ccccc2)cc1 | 25.9 µM [falling, single point] | –
24 | O=S(=O)(NC1CCCC1)c1cccc(S(=O)(=O)N2CCC(n3nnc4ccccc43)CC2)c1 | 14.1 µM [falling, partial curve, poor fit] | –
25 | Cc1ccc(S(=O)(=O)N2CCC(C(=O)OCC(=O)N3CC(=O)Nc4ccccc43)CC2)cc1 | 17.8 µM [rising, partial curve, poor fit] | –
26 | COc1cc(NC(=O)c2cc(-c3ccccc3Cl)on2)cc(OC)c1OC | 35.5 µM [falling, single point] | –
27 | Cc1ccc(-n2ncc3c(NCCc4ccccc4)ncnc32)cc1Cl | 2.51 µM [falling, partial curve, poor fit] | –
28 | Cc1ccc(C)c(OCCCC(=O)N2CCOCC2)c1 | 0.316 µM [rising, full curve, poor fit] | –
29 | O=C(CSc1nnc(CNC(=O)c2cccc(C(F)(F)F)c2)o1)NC1CCCCC1 | 3.16 µM [rising, single point] | –
30 | Nc1c(C(=O)N2CCOCC2)sc2nc3c(cc12)CCCC3 | 11.2 µM [falling, single point] | –
31 | CCc1ccc(Nc2nnc(SCC(=O)Nc3cccnc3Cl)s2)cc1 | 6.51 µM [falling, partial curve] | –
32 | N#CC(C#N)=C1C=CC=CN1/C(=C\c1ccco1)C(=O)c1ccc(Cl)cc1 | 4.11 µM [falling, single point] | –
33 | CCOc1ccc(C2C=C(c3ccc(F)cc3)Nc3ncnn32)cc1 (stereo not drawn) | 0.103 µM [rising, full curve, poor fit] | –
34 | COc1ccc([N+](=O)[O-])cc1-n1cnnn1 | 12.6 µM [rising, partial curve, poor fit] | –
35 | NS(=O)(=O)c1ccc(CCNC/C=C/c2ccccc2)cc1 | 6.31 µM [falling, partial curve, poor fit] | –
36 | COc1ccc(C(=O)Nc2ccccc2)cc1NC(=O)c1ccc([N+](=O)[O-])cc1 | 22.4 µM [falling, single point] | –
37 | O=C(NN1CCOCC1)c1ccc(Cl)c([N+](=O)[O-])c1 | 5.01 µM [falling, full curve, poor fit] | –
38 | COc1ccc(-c2nc(-c3ccccc3)c(-c3cccs3)[nH]2)cc1OC | 25.9 µM [falling, single point] | –
39 | COc1cccc(NC(=O)C2CCN(Cc3cnn(-c4ccccc4)c3-n3cccc3)CC2)c1 | 20.6 µM [falling, single point] | –
40 | Cc1ccc2c(c1)CCCN2C(=O)CSc1ccccc1 | 5.62 µM [rising, single point] | –

Entries from the list above that have a furan ring, fused or not (six):
Row | Structure (SMILES) | AC50 [1] | AC50 [2]
5 | O=C(NC(NC(=S)Nc1ccccc1O)C(Cl)(Cl)Cl)c1ccco1 (stereo not drawn) | 29.1 µM [falling, single point] | –
9 | Cc1ccc2nc(N3C(=O)C(O)=C(C(=O)c4ccco4)C3c3ccc(O)cc3)sc2c1 (stereo not drawn) | 0.355 µM [falling, full curve] | –
11 | Cc1nnc(N(Cc2ccco2)C(=O)c2cccc(C#N)c2)s1 | 0.116 µM [falling, full curve, poor fit] | –
12 | Cc1ccccc1-c1nc(CS(=O)(=O)CC(=O)NCc2ccco2)c(C)o1 | 11.2 µM [falling, partial curve, poor fit] | –
22 | CCOC(=O)C(C)Oc1cccc2c(=O)n(CC(=O)NCc3ccco3)ccc12 (stereo not drawn) | 13 µM [rising, partial curve] | 8.2 µM [falling, partial curve]
32 | N#CC(C#N)=C1C=CC=CN1/C(=C\c1ccco1)C(=O)c1ccc(Cl)cc1 | 4.11 µM [falling, single point] | –
